In article doi:10.1101/2021.02.18.431811 one finds binding data, which are given here for 2 molecules.

By UniProt entry, the sequences of proteins in these tests, tags left out.
UniProt Q92736: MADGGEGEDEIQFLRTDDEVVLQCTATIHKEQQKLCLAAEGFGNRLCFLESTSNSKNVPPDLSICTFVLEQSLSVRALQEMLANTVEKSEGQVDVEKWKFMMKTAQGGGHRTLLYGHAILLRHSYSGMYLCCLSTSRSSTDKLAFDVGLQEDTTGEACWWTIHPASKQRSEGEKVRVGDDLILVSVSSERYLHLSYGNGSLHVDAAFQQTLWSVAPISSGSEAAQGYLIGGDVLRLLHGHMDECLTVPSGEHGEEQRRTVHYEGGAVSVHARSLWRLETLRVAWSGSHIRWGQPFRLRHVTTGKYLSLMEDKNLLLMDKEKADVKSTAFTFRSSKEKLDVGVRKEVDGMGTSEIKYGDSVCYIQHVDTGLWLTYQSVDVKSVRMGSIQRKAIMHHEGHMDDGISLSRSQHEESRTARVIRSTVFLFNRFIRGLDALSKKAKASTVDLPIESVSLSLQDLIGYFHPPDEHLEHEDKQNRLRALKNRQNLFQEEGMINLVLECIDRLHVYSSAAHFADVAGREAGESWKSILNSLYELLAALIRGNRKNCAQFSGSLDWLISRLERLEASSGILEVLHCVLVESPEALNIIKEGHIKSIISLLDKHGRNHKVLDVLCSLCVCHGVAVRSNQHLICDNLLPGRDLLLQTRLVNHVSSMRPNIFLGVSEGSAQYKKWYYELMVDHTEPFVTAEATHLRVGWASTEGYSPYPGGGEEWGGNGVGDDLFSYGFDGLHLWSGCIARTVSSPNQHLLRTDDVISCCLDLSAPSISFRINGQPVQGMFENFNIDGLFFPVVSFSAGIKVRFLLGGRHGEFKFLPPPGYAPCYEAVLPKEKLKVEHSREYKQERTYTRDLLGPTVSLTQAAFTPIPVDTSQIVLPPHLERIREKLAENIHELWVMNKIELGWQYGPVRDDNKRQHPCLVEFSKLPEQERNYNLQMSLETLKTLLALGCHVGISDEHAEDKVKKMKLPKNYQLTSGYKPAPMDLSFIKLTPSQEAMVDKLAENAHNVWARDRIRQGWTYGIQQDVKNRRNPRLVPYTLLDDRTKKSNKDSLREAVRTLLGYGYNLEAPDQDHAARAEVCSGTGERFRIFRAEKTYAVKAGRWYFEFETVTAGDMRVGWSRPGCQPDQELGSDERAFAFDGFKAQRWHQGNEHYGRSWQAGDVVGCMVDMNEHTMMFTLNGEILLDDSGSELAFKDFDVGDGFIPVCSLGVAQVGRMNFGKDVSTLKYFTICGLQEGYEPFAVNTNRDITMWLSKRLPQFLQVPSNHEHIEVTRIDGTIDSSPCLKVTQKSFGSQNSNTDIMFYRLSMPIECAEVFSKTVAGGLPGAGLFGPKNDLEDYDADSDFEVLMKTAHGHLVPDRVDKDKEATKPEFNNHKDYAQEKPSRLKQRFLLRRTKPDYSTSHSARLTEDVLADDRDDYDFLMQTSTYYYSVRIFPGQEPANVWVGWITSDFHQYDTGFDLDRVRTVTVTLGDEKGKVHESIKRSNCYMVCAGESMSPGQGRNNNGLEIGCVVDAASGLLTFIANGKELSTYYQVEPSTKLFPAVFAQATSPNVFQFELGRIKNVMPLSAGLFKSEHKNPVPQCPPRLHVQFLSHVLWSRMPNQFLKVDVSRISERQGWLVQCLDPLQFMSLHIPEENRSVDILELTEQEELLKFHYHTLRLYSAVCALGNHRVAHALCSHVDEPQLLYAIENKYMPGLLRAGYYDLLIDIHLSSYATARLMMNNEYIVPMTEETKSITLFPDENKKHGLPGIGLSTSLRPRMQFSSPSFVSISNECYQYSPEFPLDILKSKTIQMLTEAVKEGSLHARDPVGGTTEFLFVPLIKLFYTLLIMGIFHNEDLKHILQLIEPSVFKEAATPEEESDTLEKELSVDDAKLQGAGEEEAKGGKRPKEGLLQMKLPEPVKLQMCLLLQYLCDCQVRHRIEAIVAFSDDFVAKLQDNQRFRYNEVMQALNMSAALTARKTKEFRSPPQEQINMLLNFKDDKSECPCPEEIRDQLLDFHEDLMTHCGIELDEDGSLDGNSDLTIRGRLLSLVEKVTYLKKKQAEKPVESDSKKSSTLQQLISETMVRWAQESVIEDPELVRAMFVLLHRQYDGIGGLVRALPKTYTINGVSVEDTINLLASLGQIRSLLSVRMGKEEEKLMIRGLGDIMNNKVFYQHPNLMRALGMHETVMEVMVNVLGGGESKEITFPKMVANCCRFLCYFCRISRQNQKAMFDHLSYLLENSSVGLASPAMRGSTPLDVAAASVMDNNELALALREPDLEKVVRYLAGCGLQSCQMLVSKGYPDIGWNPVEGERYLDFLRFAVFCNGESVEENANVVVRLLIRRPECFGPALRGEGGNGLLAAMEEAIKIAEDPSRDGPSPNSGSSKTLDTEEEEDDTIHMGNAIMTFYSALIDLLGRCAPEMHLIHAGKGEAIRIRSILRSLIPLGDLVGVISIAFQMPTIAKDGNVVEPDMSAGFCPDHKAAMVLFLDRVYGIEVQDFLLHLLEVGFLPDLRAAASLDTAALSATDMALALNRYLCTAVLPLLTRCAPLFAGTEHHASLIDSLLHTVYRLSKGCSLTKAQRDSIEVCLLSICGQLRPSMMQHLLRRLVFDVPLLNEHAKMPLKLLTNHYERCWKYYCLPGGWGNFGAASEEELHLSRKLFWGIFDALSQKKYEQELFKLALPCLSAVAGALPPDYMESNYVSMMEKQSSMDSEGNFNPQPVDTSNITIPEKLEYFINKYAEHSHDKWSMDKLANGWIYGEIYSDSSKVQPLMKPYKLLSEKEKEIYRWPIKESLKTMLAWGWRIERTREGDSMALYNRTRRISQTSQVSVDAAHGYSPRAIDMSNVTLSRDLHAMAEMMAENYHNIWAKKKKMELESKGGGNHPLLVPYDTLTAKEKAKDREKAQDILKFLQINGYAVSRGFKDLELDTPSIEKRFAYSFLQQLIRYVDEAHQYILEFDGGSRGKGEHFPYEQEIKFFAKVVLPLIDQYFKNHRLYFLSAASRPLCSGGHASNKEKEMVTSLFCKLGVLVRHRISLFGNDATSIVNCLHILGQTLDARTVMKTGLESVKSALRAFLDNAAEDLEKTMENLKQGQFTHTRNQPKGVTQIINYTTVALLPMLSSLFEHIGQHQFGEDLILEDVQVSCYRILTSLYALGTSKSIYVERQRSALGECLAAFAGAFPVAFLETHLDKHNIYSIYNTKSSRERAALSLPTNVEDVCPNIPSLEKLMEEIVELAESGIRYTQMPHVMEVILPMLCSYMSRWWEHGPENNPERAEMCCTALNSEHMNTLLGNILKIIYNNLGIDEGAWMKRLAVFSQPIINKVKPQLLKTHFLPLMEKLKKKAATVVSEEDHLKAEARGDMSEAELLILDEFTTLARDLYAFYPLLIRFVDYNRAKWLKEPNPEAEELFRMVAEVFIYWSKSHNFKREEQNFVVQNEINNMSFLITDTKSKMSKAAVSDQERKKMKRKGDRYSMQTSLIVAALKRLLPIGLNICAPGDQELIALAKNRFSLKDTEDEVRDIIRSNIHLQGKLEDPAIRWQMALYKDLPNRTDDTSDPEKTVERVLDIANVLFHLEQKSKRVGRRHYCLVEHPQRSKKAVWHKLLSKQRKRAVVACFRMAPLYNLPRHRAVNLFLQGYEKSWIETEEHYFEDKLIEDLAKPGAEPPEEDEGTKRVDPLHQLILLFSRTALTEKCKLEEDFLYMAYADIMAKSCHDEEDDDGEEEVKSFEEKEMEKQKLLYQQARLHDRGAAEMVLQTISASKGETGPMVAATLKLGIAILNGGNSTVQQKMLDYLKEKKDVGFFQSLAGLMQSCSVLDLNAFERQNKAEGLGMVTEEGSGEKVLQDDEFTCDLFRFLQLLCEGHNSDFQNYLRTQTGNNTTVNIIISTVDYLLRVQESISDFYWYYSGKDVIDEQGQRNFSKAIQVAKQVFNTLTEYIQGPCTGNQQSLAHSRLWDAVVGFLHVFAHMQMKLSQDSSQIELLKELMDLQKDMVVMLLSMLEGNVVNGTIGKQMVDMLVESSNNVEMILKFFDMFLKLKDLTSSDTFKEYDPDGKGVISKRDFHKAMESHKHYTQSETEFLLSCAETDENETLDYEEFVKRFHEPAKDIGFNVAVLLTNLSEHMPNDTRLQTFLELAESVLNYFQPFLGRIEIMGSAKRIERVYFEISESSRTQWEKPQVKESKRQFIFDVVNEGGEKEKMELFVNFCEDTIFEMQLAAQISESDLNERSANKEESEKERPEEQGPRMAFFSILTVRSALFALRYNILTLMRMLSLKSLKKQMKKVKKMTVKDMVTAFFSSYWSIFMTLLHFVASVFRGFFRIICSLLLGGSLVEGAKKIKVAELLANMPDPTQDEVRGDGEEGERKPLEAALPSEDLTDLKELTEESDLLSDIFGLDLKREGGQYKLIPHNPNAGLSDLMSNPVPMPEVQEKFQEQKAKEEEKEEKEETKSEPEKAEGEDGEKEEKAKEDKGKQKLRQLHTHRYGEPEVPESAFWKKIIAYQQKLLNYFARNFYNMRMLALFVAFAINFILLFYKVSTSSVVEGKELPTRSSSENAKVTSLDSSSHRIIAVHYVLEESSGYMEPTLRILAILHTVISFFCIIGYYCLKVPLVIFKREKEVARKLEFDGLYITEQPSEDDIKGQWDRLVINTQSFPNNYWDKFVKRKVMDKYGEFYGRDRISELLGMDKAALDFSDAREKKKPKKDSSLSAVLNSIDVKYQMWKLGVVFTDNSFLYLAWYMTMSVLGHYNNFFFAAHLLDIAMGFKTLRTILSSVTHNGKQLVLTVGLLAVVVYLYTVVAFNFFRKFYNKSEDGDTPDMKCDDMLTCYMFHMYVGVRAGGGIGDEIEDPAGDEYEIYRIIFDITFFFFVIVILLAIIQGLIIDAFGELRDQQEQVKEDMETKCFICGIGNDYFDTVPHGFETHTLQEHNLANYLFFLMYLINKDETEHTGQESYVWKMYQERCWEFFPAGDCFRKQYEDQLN
UniProt P68106: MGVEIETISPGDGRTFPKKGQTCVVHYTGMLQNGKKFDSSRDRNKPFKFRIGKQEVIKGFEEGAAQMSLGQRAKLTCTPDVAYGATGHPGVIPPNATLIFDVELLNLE

Like-named read-outs stand apart in the source and are kept apart here. No constants are given. Whether binding was seen depends on the method and setting. In cells and extracts the contact can be indirect. Some entries that bind do so weakly or less than the wild type.

The target in assay [1] is ryanodine receptor/calcium (Ca2+) release channel RyR2 (human (endogenous in heart, lung and brain tissue)) (UniProt Q92736). Description: co-IP.
The target is the same in assay [2]. The assay can be described thus: co-IP. This is another data set of the same source.

For the molecule calstabin2 (from UniProt P68106 1-108), the binding entry in assay [1] is on record as “binds”.

B1: NADPH oxidase 2 (NOX2) (protein, UniProt P04839 1-570)
chain: MGNWAVNEGLSIFVILVWLGLNVFLFVWYYRVYDIPPKFFYTRKLLGSALALARAPAACLNFNCMLILLPVCRNLLSFLRGSSACCSTRVRRQLDRNLTFHKMVAWMIALHSAIHTIAHLFNVEWCVNARVNNSDPYSVALSELGDRQNESYLNFARKRIKNPEGGLYLAVTLLAGITGVVITLCLILIITSSTKTIRRSYFEVFWYTHHLFVIFFIGLAIHGAERIVRGQTAESLAVHNITVCEQKISEWGKIKECPIPQFAGNPPMTWKWIVGPMFLYLCERLVRFWRSQQKVVITKVVTHPFKTIELQMKKKGFKMEVGQYIFVKCPKVSKLEWHPFTLTSAPEEDFFSIHIRIVGDWTEGLFNACGCDKQEFQDAWKLPKIAVDGPFGTASEDVFSYEVVMLVGAGIGVTPFASILKSVWYKYCNNATNLKLKKIYFYWLCRDTHAFEWFADLLQLLESQMQERNNAGFLSYNIYLTGWDESQANHFAVHHDEEKDVITGLKQKTLYGRPNWDNEFKTIASQHPNTRIGVFLCGPEALAETLSKQSISNSESGPRGVHFIFNKENF
As for B1, the binding entry in assay [2] is “binds”.
